Among the data in article doi:10.1101/500082 are binding values, retold here.

By UniProt entry, the sequences of proteins in these tests, tags left out. Where a name states a change or a piece, a line headed by the entry shows the natural chain unless it says otherwise.
UniProt Q9GYJ9: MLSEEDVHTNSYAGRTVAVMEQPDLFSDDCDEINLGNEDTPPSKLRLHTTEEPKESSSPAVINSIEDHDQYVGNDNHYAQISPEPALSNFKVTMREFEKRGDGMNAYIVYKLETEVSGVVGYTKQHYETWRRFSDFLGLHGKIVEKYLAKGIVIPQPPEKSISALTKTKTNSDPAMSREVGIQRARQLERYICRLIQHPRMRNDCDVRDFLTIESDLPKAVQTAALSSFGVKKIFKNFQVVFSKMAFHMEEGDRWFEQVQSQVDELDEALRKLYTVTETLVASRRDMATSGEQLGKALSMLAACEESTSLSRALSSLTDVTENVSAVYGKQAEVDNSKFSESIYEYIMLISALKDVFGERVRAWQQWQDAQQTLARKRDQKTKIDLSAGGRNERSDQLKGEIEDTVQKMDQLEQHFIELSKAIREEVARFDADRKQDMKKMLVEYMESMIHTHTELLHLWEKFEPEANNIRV

Assay [1] deals with T1, SPE-39-FLAG (yeast two-hybrid vector) (C. elegans) (UniProt Q23288).
T1 sequence: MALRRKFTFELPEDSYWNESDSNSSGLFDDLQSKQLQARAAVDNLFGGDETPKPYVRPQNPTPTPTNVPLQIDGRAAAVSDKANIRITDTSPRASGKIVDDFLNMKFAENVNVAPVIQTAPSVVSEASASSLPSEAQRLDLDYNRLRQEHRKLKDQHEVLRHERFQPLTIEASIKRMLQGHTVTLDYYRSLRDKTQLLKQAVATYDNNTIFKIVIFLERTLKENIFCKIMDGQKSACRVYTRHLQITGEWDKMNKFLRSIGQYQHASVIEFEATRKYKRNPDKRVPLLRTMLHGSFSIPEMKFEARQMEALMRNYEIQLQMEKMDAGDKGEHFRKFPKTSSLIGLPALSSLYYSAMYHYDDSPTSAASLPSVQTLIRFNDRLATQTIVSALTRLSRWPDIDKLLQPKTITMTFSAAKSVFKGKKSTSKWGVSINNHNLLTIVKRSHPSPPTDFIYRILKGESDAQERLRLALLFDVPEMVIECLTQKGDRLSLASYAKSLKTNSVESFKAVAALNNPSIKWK
The assay is described as follows: two-hybrid.

Assay [2] addresses T1, SPE-39-FLAG (yeast two-hybrid vector) (C. elegans). The assay is described as follows: pull-down.
Another assay addresses T2, SPE-39-GST (C. elegans) (UniProt Q23288).
T2 sequence: T1 sequence
The assay is described as follows: pull-down.

Results are given in words; binding and its absence hold for the method and conditions named. Binding calls can cover weak binding; strength is not graded here. Where a sequence is shown, tags or fusion partners need not be part of it. For some assays here: Binding seen in cells or lysates may run through a third protein.

As to “VPS-45 (yeast two-hybrid vector) (from UniProt H2KYN0)”, the binding entry in assay [1] and in assay [2] was “binds” throughout.
Consider “SNX-1 (yeast two-hybrid vector) (from UniProt Q9GYJ9)”, for which the binding result in assay [1] and in assay [2] was “binds” in each case.
Consider His-VPS-45 (from UniProt H2KYN0), for which, in the assay with SPE-39-GST (C. elegans), the binding result is “binds”.
